Laboratory results as given in paper PMC10782615.

Target: PHB2 mutant lacking the N-terminal region
Assay: co-IP; deletion mapping of SHIP2 truncates and PHB2 mutants in HEK293T cells

B1: tGFP-SHIP2 (full-length SHIP2, SHIP2-FL) (protein, UniProt O15357 1-1258)
chain: MASACGAPGPGGALGSQAPSWYHRDLSRAAAEELLARAGRDGSFLVRDSESVAGAFALCVLYQKHVHTYRILPDGEDFLAVQTSQGVPVRRFQTLGELIGLYAQPNQGLVCALLLPVEGEREPDPPDDRDASDGEDEKPPLPPRSGSTSISAPTGPSSPLPAPETPTAPAAESAPNGLSTVSHDYLKGSYGLDLEAVRGGASHLPHLTRTLATSCRRLHSEVDKVLSGLEILSKVFDQQSSPMVTRLLQQQNLPQTGEQELESLVLKLSVLKDFLSGIQKKALKALQDMSSTAPPAPQPSTRKAKTIPVQAFEVKLDVTLGDLTKIGKSQKFTLSVDVEGGRLVLLRRQRDSQEDWTTFTHDRIRQLIKSQRVQNKLGVVFEKEKDRTQRKDFIFVSARKREAFCQLLQLMKNKHSKQDEPDMISVFIGTWNMGSVPPPKNVTSWFTSKGLGKTLDEVTVTIPHDIYVFGTQENSVGDREWLDLLRGGLKELTDLDYRPIAMQSLWNIKVAVLVKPEHENRISHVSTSSVKTGIANTLGNKGAVGVSFMFNGTSFGFVNCHLTSGNEKTARRNQNYLDILRLLSLGDRQLNAFDISLRFTHLFWFGDLNYRLDMDIQEILNYISRKEFEPLLRVDQLNLEREKHKVFLRFSEEEISFPPTYRYERGSRDTYAWHKQKPTGVRTNVPSWCDRILWKSYPETHIICNSYGCTDDIVTSDHSPVFGTFEVGVTSQFISKKGLSKTSDQAYIEFESIEAIVKTASRTKFFIEFYSTCLEEYKKSFENDAQSSDNINFLKVQWSSRQLPTLKPILADIEYLQDQHLLLTVKSMDGYESYGECVVALKSMIGSTAQQFLTFLSHRGEETGNIRGSMKVRVPTERLGTRERLYEWISIDKDEAGAKSKAPSVSRGSQEPRSGSRKPAFTEASCPLSRLFEEPEKPPPTGRPPAPPRAAPREEPLTPRLKPEGAPEPEGVAAPPPKNSFNNPAYYVLEGVPHQLLPPEPPSPARAPVPSATKNKVAITVPAPQLGHHRHPRVGEGSSSDEESGGTLPPPDFPPPPLPDSAIFLPPSLDPLPGPVVRGRGGAEARGPPPPKAHPRPPLPPGPSPASTFLGEVASGDDRSCSVLQMAKTLSEVDYAPAGPARSALLPGPLELQPPRGLPSDYGRPLSFPPPRIRESIQEDLAEEAPCLQGGRASGLGEAGMSAWLRAIGLERYEEGLVHNGWDDLEFLSDITEEDLEEAGVQDPAHKRLLLDTLQLSK
**Q.** Which binding does the source give for B1 here?
**A.** binds

These are yes or no findings as the source states them, for the method shown. In cells and extracts the contact can be indirect. A result given as binding can be weak or reduced; the word gives no strength. Tags and fused reporters may be left off the sequences shown.
